{"source": "patent US20120035180A1", "about": "“PHARMACEUTICAL COMPOSITION FOR TREATING CANCER COMPRISING CHLORIN E6-FOLIC ACID CONJUGATE COMPOUND AND CHITOSAN” (priority 2009, published 2012)", "tested_on": "sarcoma M-1", "assay": "Necrotic area in sarcoma M-1 after PDT", "type": "in vivo, rats", "conditions": "5.0 mg/kg, PDT 100 J/cm^2 at 4 hours, mean of 25 slides", "method": "After fixation, transverse sections of the tumor nodule in its highest diameter were made, and pictures were taken by a camera connected to a computer.\nFor quantitative assessment of necroses formed after PDT, computer analysis of color tints of histo-topographic tumor slides was performed using a special program.\nThe program included an algorithm of blue color identification (Evans blue), which stained viable areas of the tumor. Tumor areas killed from direct cytotoxic effect or due to structural-functional disorders of microcirculation were not stained in blue. The ratio of all non-stained dots to the total amount of dots in the fence of the tumor slide was considered to be the destruction efficiency.\nFor this purpose, a laser medical instrument “ ? 680-2000” (BIOSPEC, Moscow) was used to perform the exposure at a wavelength of 670 nm in a dose of 100 J/cm^2. The power density was 0.51 W/cm^2, the output power was 0.4 W, and the spot light diameter was 1 cm. Time of exposure was […]. Monitoring over radiating power was conducted by a universal power meter included in the laser device “ ? 680-2000”."}
{"substance": "[γ-(6-aminohexyl)folic acid]-chlorin e6 [chlorin e6 conjugate]", "values": [{"measurement": "Slide area of sarcoma M-1", "value": 2.255, "unit": "cm^2"}]}
